Measured data: PubChem BioAssay AID1159584 (Peter MacCallum Cancer Centre, 2016)
Aim: 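Knock-downs that harm CDH1-null cells more than parental MCF10A cells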 (primary screen). System: human MCF10A breast epithelial cells, parental and CDH1-null. Reagent: siRNA against human genes. Read-out: 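Cell viability by CellTiter-Glo ATP luminescence, each line scaled to the mean of mock wells across plates, then CDH1-null over parental ratio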. Reading the numbers: CDH1-null / parental viability ratio: higher = CDH1-null cells survive relatively better than parental; CDH1-null viability vs mock: higher = more viable CDH1-null cells. Units: CDH1-null viability vs mock in fraction of mock.
Shown is a random part of about 18,000 reagents. Further read-outs or replicates are left out here. The record does not give: the amount of reagent, the time to read-out.

VWA8
- CDH1-null / parental viability ratio: 0.67
- CDH1-null viability vs mock: 0.5

HLA-K
- CDH1-null / parental viability ratio: 1.38
- CDH1-null viability vs mock: 0.94

ZDHHC11
- CDH1-null / parental viability ratio: 1.21
- CDH1-null viability vs mock: 0.46

AK2
- CDH1-null / parental viability ratio: 0.87
- CDH1-null viability vs mock: 0.82

RPRML
- CDH1-null / parental viability ratio: 1.31
- CDH1-null viability vs mock: 1.05

LAMTOR3
- CDH1-null / parental viability ratio: 0.89
- CDH1-null viability vs mock: 0.8

TPD52
- CDH1-null / parental viability ratio: 1.21
- CDH1-null viability vs mock: 1.14

ZBTB25
- CDH1-null / parental viability ratio: 0.93
- CDH1-null viability vs mock: 0.99

ATAT1
- CDH1-null / parental viability ratio: 1.14
- CDH1-null viability vs mock: 0.84

NGFR
- CDH1-null / parental viability ratio: 0.98
- CDH1-null viability vs mock: 0.96

KRTAP5-3
- CDH1-null / parental viability ratio: 1.04
- CDH1-null viability vs mock: 0.5

PIP5K1C
- CDH1-null / parental viability ratio: 0.87
- CDH1-null viability vs mock: 0.97

MTMR6
- CDH1-null / parental viability ratio: 1.39
- CDH1-null viability vs mock: 1

LY6H
- CDH1-null / parental viability ratio: 1.24
- CDH1-null viability vs mock: 0.99

ABCB10
- CDH1-null / parental viability ratio: 0.9
- CDH1-null viability vs mock: 0.54

OR8B4
- CDH1-null / parental viability ratio: 1.18
- CDH1-null viability vs mock: 0.9

EZHIP
- CDH1-null / parental viability ratio: 0.95
- CDH1-null viability vs mock: 0.82

XBP1
- CDH1-null / parental viability ratio: 1.07
- CDH1-null viability vs mock: 1.02

TCTA
- CDH1-null / parental viability ratio: 0.93
- CDH1-null viability vs mock: 0.75

KCNT1
- CDH1-null / parental viability ratio: 1.55
- CDH1-null viability vs mock: 1.19

IMP3
- CDH1-null / parental viability ratio: 1.11
- CDH1-null viability vs mock: 0.59

COL23A1
- CDH1-null / parental viability ratio: 0.69
- CDH1-null viability vs mock: 0.6

RGS13
- CDH1-null / parental viability ratio: 0.89
- CDH1-null viability vs mock: 0.76

PCED1B
- CDH1-null / parental viability ratio: 1.24
- CDH1-null viability vs mock: 0.88

PLXNB1
- CDH1-null / parental viability ratio: 0.84
- CDH1-null viability vs mock: 0.72

TAS2R43
- CDH1-null / parental viability ratio: 1.09
- CDH1-null viability vs mock: 0.7

KRTAP6-3
- CDH1-null / parental viability ratio: 0.82
- CDH1-null viability vs mock: 0.74

SLC17A9
- CDH1-null / parental viability ratio: 1.1
- CDH1-null viability vs mock: 0.44

SCFD1
- CDH1-null / parental viability ratio: 0.94
- CDH1-null viability vs mock: 0.5

RNASEH2B
- CDH1-null / parental viability ratio: 1
- CDH1-null viability vs mock: 0.85

PTK6
- CDH1-null / parental viability ratio: 0.92
- CDH1-null viability vs mock: 0.9

KIRREL1
- CDH1-null / parental viability ratio: 0.84
- CDH1-null viability vs mock: 0.66

PNPLA4
- CDH1-null / parental viability ratio: 1.02
- CDH1-null viability vs mock: 0.87

URI1
- CDH1-null / parental viability ratio: 0.7
- CDH1-null viability vs mock: 0.56

UPRT
- CDH1-null / parental viability ratio: 0.89
- CDH1-null viability vs mock: 0.57

Records above whose gene name starts with P or p (5):
PIP5K1C
- CDH1-null / parental viability ratio: 0.87
- CDH1-null viability vs mock: 0.97

PCED1B
- CDH1-null / parental viability ratio: 1.24
- CDH1-null viability vs mock: 0.88

PLXNB1
- CDH1-null / parental viability ratio: 0.84
- CDH1-null viability vs mock: 0.72

PTK6
- CDH1-null / parental viability ratio: 0.92
- CDH1-null viability vs mock: 0.9

PNPLA4
- CDH1-null / parental viability ratio: 1.02
- CDH1-null viability vs mock: 0.87
